For one compound, double positive events results are on record in PubChem BioAssay AID2523 (NMMLSC, 2010).

Some of the results follow.

The test is described as follows: reduced mouse 2C T cell binding to pMHC/ICAM-1 vesicles – MLPCN validation set, flow cytometry, LFA-1/ICAM-1 modulator project, pilot screen (AID 2523). To be noted: 2C mouse CD8+ T cells, measured here: CD8+/vesicle+ event percentage, at 7 µM, stronger effect = lower value.
`CN(C(=O)Cc1ccc(Cl)c(Cl)c1)[C@@H]1CCCC[C@H]1N1CCCC1` yielded a double positive events of 62.6%.
